PubChem BioAssay AID192 (DTP/NCI, 2004)
The list does not hold the whole screen: it gathers tests that were run many times, whatever their T/C, doses with no T/C, and many T/C values between a quarter and a half above the control. Other doses and runs of a compound stand elsewhere. T/C is the treated group as % of the vehicle group. Some entries give survivors of the animals treated and no T/C: the source files T/C as zero there, which appears to mark a toxic dose or a test without result, not a measured value. Some survivor counts are full or nearly so, which does not show that the dose was tolerated: survival well below the control is almost never listed, so the zero probably covers shortened survival too. Survivors were counted at the toxicity check, usually on the fifth day, unless a day is given; later deaths do not show. Schedules are NCI's codes, read here as Q, the interval in days (D) or hours (H), X, the number of doses. Some molecules as drawn cover several salts, stereoisomers or complexes of the source; a dose is that of the sample tested. Some entries hold several experiments; the values are given in rising order. Marks such as (2×) say how often a value occurs here. Where survival is the endpoint, this PubChem deposit counts one and a half times the control or more as active, and values a quarter to a half above the control carry no call in these data; other NCI protocols may use other cut-offs. Some T/C values are followed by the survivors on the day toxicity was checked, most often the fifth; without a count, all were alive then.

Test system: BDF1 mice, B16 melanoma ip, median survival T/C
Experiment: NCI In Vivo Anticancer Drug Screen. Data for tumor model B16 Melanoma (intraperitoneal) in B6D2F1 (BDF1) mice
Settings: T/C endpoint: median survival time, higher T/C = longer survival
Summary of the method: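 Each result divides a survival or tumor-size measurement in the compound-treated group by the same measurement in the vehicle group.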

[1] = dose: 32.0 mg/kg/injection, schedule: Q01DX009 (ip), vehicle: Klucel (hydroxypropylcellulose) (HPC)
[2] = dose: 32.0 mg/kg/injection, schedule: Q01DX009 (ip), vehicle: water

O=C1c2ccccc2C(=O)c2c(NCCNCCO)ccc(NCCNCCO)c21
T/C (dose: 0.25 mg/kg/injection, schedule: Q01DX009 (ip), vehicle: saline with Tween-80): 125 % of control | survivor count (dose: 0.25 mg/kg/injection, schedule: Q01DX009 (oral), vehicle: water): 3 of 10 | T/C (dose: 0.5 mg/kg/injection, schedule: Q01DX009 (ip), vehicle: saline with Tween-80): 139 % of control | T/C (dose: 0.5 mg/kg/injection, schedule: Q01DX009 (ip), vehicle: saline): 133 % of control | survivor count (dose: 0.5 mg/kg/injection, schedule: Q01DX009 (oral), vehicle: water): 4 of 10 | T/C (dose: 1.0 mg/kg/injection, schedule: Q01DX009 (ip), vehicle: saline with Tween-80): 147 % of control | T/C (dose: 1.0 mg/kg/injection, schedule: Q01DX009 (ip), vehicle: saline): 125, 125 [9 of 10 alive], 145 % of control | survivor count (dose: 1.0 mg/kg/injection, schedule: Q01DX009 (oral), vehicle: water): 10 of 10 | T/C (dose: 1.0 mg/kg/injection, schedule: Q03HX024 (ip), vehicle: saline): 146 % of control | T/C (dose: 2.0 mg/kg/injection, schedule: Q01DX009 (ip), vehicle: other): 131 % of control | T/C (dose: 2.0 mg/kg/injection, schedule: Q01DX009 (ip), vehicle: saline with Tween-80): 138 % of control | T/C (dose: 2.0 mg/kg/injection, schedule: Q01DX009 (ip), vehicle: saline, evaluated on day 56): 157 % of control | T/C (dose: 2.0 mg/kg/injection, schedule: Q01DX009 (ip), vehicle: saline, evaluated on day 60): 124 [9 of 10 alive], 146, 147, 163 % of control | survivor count (dose: 2.0 mg/kg/injection, schedule: Q01DX009 (oral), vehicle: water): 9 of 10 | T/C (dose: 2.0 mg/kg/injection, schedule: Q01DX009 (sc), vehicle: acid diluted with saline): 144 % of control | T/C (dose: 2.0 mg/kg/injection, schedule: Q03HX008 (ip), vehicle: saline): 134 % of control | T/C (dose: 4.0 mg/kg/injection, schedule: Q01DX009 (ip), vehicle: other): 141 % of control | T/C (dose: 4.0 mg/kg/injection, schedule: Q01DX009 (ip), vehicle: saline, evaluated on day 56): 181 % of control | T/C (dose: 4.0 mg/kg/injection, schedule: Q01DX009 (ip), vehicle: saline, evaluated on day 60): 147, 163, 168, 178 [9 of 10 alive], 196 % of control | survivor count (dose: 4.0 mg/kg/injection, schedule: Q01DX009 (oral), vehicle: water): 9 of 10 | T/C (dose: 4.0 mg/kg/injection, schedule: Q03HX008 (ip), vehicle: saline): 146 % of control | T/C (dose: 8.0 mg/kg/injection, schedule: Q01DX001 (ip), vehicle: saline): 130 % of control | T/C (dose: 8.0 mg/kg/injection, schedule: Q01DX005 (ip), vehicle: saline): 146 % of control | T/C (dose: 8.0 mg/kg/injection, schedule: Q01DX009 (ip), vehicle: saline, evaluated on day 56): 222 % of control | T/C (dose: 8.0 mg/kg/injection, schedule: Q01DX009 (ip), vehicle: saline, evaluated on day 60): 152, 184, 186, 199, 208 % of control | T/C (dose: 8.0 mg/kg/injection, schedule: Q01DX009 (ip), vehicle: water): 180, 197, 227, 245 % of control | survivor count (dose: 8.0 mg/kg/injection, schedule: Q01DX009 (oral), vehicle: water): 10 of 10 | T/C (dose: 8.0 mg/kg/injection, schedule: Q03HX008 (ip), vehicle: saline): 147 % of control | T/C (dose: 8.0 mg/kg/injection, schedule: Q03HX024 (ip), vehicle: saline): 129 % of control | T/C (dose: 8.0 mg/kg/injection, schedule: Q04DX003 (ip), vehicle: saline): 144 % of control | T/C (dose: 9.3 mg/kg/injection, schedule: Q01DX001 (ip), vehicle: Klucel (hydroxypropylcellulose) (HPC)): 143 % of control | T/C (dose: 16.0 mg/kg/injection, schedule: Q01DX001 (ip), vehicle: saline): 147 % of control | T/C (dose: 16.0 mg/kg/injection, schedule: Q01DX009 (ip), vehicle: saline, evaluated on day 56): 257 % of control | T/C (dose: 16.0 mg/kg/injection, schedule: Q01DX009 (ip), vehicle: saline, evaluated on day 60): 171, 172 [9 of 10 alive], 207, 219, 236 % of control | T/C (dose: 16.0 mg/kg/injection, schedule: Q01DX009 (ip), vehicle: water): 203 [9 of 10 alive], 210, 211 % of control (2×) | T/C (dose: 16.0 mg/kg/injection, schedule: Q01DX009 (sc), vehicle: saline): 134 % of control | survivor count (dose: 16.0 mg/kg/injection, schedule: Q03HX024 (ip), vehicle: acid diluted with saline): 9 of 10 | survivor count (dose: 16.0 mg/kg/injection, schedule: Q03HX024 (ip), vehicle: saline): 9 of 10 | T/C (dose: 16.0 mg/kg/injection, schedule: Q04DX003 (ip), vehicle: saline): 146 % of control | T/C (dose: 18.7 mg/kg/injection, schedule: Q01DX001 (ip), vehicle: Klucel (hydroxypropylcellulose) (HPC)): 149 % of control | T/C (dose: 25.0 mg/kg/injection, schedule: Q01DX001 (ip), vehicle: water): 146 % of control | T/C [1]: 142 % of control | survivor count [1]: 9 of 10 | survivor count (dose: 32.0 mg/kg/injection, schedule: Q01DX009 (ip), vehicle: acid diluted with saline): 10 of 10 | survivor count (dose: 32.0 mg/kg/injection, schedule: Q01DX009 (ip), vehicle: other): 10 of 10 | survivor count (dose: 32.0 mg/kg/injection, schedule: Q01DX009 (ip), vehicle: saline with Tween-80): 9 of 10 and 10 of 10 | survivor count (dose: 32.0 mg/kg/injection, schedule: Q01DX009 (ip), vehicle: saline): 9 of 10 and 10 of 10 (2×) | T/C [2]: 216 and 220 % of control | survivor count [2]: 8 of 10 and 10 of 10 | survivor count (dose: 32.0 mg/kg/injection, schedule: Q02DX009 (ip), vehicle: saline with Tween-80): 10 of 10 | survivor count (dose: 32.0 mg/kg/injection, schedule: Q02DX009 (ip), vehicle: saline): 9 of 10
